In this test the target is IGF2BP2 (human (endogenous in MDA-MB-231 and HCC-1806)) (UniProt Q9Y6M1). Put plainly: affinity purification with mass spectrometry; IP-MS of IGF2BP2 from human breast cancer cell lysates, three independent replicates; Protein A/G magnetic beads.

Amino acid sequences for entries named in this document (tags omitted).
UniProt Q9Y6M1: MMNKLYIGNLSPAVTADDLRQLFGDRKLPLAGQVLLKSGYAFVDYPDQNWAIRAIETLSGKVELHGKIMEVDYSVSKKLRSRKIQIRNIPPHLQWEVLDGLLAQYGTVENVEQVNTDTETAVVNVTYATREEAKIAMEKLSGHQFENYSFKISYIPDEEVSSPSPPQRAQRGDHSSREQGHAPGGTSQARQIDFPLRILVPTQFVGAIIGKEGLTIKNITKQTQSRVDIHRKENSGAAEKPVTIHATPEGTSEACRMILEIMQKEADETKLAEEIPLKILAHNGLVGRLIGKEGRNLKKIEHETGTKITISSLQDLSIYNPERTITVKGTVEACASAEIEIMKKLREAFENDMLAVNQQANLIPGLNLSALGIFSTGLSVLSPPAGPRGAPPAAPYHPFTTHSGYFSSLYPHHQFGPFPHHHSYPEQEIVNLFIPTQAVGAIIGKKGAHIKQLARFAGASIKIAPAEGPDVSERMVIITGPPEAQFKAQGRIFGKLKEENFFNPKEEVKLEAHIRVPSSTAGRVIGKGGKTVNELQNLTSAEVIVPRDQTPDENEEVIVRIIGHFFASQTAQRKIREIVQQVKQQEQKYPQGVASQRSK
UniProt P60842: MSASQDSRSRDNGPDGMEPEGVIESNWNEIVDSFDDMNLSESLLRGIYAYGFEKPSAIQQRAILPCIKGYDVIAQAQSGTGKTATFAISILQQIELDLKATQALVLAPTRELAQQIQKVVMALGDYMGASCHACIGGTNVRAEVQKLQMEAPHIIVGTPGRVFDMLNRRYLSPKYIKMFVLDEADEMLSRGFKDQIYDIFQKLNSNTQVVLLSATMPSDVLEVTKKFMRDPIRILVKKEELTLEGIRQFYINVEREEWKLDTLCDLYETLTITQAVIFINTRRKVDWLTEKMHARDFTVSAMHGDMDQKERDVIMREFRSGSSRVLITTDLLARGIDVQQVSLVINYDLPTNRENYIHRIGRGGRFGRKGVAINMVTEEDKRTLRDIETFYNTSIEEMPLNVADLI
UniProt P38919: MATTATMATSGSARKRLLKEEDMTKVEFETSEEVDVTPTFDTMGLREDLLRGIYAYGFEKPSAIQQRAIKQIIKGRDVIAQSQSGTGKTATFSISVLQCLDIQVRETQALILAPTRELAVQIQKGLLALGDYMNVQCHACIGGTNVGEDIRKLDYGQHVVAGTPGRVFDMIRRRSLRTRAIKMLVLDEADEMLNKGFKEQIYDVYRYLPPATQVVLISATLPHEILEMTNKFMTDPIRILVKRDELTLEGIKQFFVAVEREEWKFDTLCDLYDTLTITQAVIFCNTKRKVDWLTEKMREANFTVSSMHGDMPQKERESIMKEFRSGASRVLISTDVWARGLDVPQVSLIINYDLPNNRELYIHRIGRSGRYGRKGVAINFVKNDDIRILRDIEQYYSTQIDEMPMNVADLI

The results in this text go back to article PMC10767445.

Results are given in words; binding and its absence hold for the method and conditions named. In cells and extracts the contact can be indirect. A yes stands for co-enrichment or nearness to the bait. Other partners may have been found.

Take EIF4A1 (from UniProt P60842 1-406): the binding entry was “binds”.

Take EIF4A3 (from UniProt P38919 1-411): the binding entry is given as “binds”.
